Among the data in publication doi:10.1101/2021.07.20.453058 (bioRxiv, 2021) are binding values, retold here.

The experiment addresses T1, FLAG-KaiC1 (Synechocystis sp. PCC 6803) (UniProt P74646).
T1 sequence: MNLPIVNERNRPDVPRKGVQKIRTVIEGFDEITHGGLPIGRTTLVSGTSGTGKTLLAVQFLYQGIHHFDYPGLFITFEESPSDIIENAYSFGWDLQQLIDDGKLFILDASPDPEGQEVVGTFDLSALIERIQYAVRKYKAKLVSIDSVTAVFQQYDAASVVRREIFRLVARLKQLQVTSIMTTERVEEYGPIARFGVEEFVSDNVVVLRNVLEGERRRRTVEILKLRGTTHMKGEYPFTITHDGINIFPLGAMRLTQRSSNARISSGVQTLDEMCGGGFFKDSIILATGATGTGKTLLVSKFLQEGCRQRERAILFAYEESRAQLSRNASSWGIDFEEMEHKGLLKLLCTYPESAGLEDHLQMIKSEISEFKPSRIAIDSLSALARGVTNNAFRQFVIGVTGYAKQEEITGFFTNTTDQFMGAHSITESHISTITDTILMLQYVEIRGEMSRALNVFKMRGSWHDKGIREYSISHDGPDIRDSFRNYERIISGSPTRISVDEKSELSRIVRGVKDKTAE
Kind of experiment: affinity purification with mass spectrometry.

No constants are given. Whether binding was seen depends on the method and setting. In cells and extracts the contact can be indirect. These calls come from enrichment with a bait or labelling near it, and not all partners need be listed. No binding means not detected with the bait. Sequences can lack the tags named with a protein.

With KaiA3 (Sll0485), endogenous, the binding entry is “no binding”.
